# Results of single-concentration screens

Source: ChEMBL document CHEMBL3988442, “University of Dundee, Small-Polar-MMV Screening Library” (2021).

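Whole-parasite assay of Trypanosoma brucei over 72 hours; the read-out is not stated. Concentration: 30 µM. Direction is inferred from retests: higher values go with stronger inhibition. Values scatter widely below zero; nearly all retest evidence comes from the higher of the two concentrations used. Size under these conditions: about 64,000 compounds, about 940 of them at 50% or above in at least one test.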

The filed quantity is “Percent Effect” (%). The controls that fix the scale are not given in the record; negative values are as filed. Compounds were drawn at random from those tested, without regard to their results.

{"structure": "Cc1cc(C)n(C2CCCN(C(=O)c3cccc4c3OCO4)C2)n1", "stereo": "centres undefined", "Percent Effect": 17.87}
{"structure": "O=C(O)C(F)(F)F.[H][C@@]12CCCO[C@]1([H])[C@H](OCC1CCCC1)CN2c1nnc(C)s1", "Percent Effect": 15.42}
{"structure": "Cc1cc(C(=O)N2CC[C@H](N3CCN(C)CC3)[C@H](CCCO)C2)n(C)n1", "Percent Effect": -37.75}
{"structure": "Cc1ccc(-c2nc(CN3CCN(C(=O)C4CC4)CC3)cs2)o1", "Percent Effect": 2.251}
{"structure": "CCc1cc(N(C)CCc2noc(C)n2)nc(N2CCOCC2)n1", "Percent Effect": -102.3}
{"structure": "Cc1nc2c(c(=O)n1C)CN(C(=O)C1CCCN(C(N)=O)C1)C2", "stereo": "centres undefined", "Percent Effect": -21.76}
{"structure": "COCC1CN(C(=O)COc2ccccc2C)Cc2ncn(C)c21.O=C(O)C(F)(F)F", "stereo": "centres undefined", "Percent Effect": -41.31}
{"structure": "COCCNC(=O)Cn1nc(C(C)C)c2cnn(C(C)(C)C)c2c1=O", "Percent Effect": -76.93}
{"structure": "O=C(NC1=NCCS1)C1CSCN1C(=O)C1CCCC1", "stereo": "centres undefined", "Percent Effect": -402.7}
{"structure": "O=C(O)C(F)(F)F.O=C(O)C(F)(F)F.[H][C@@]12CCCO[C@]1([H])[C@H](OCCCn1cccn1)CN2C1CCOCC1", "Percent Effect": 0.5768}
{"structure": "COc1ccccc1C(C)(C)NC(=O)c1ccc(F)c(NC(C)=O)c1", "Percent Effect": -36.75}
{"structure": "N#Cc1ccc(CN2CCCC2Cn2cccn2)c(F)c1", "stereo": "centres undefined", "Percent Effect": -8.146}
{"structure": "O=C(O)C(F)(F)F.[H][C@@]12CCCO[C@]1([H])[C@H](OCc1ccncc1)CN2S(=O)(=O)CCC", "Percent Effect": 25.91}
{"structure": "Cc1cccc(N2CCN(C(=O)c3c(C)nn(C)c3C)CC2)c1C", "Percent Effect": -16.52}
{"structure": "COCCN1CCC(CNC(=O)C2(c3cc(C)cc(C)c3)CCC2)C1", "stereo": "centres undefined", "Percent Effect": -38.21}
{"structure": "Cc1n[nH]c(C)c1NC(=O)C1CCCN(C(=O)NCC(C)C)C1", "stereo": "centres undefined", "Percent Effect": -49.57}
{"structure": "CCOCCn1nc(C)cc1C(=O)N1CCC2(CC1)[C@H](O)C[C@@H]2OCC", "Percent Effect": -36.49}
{"structure": "CCc1nccn1-c1cncc(C2CCCN2Cc2ccccc2)n1", "stereo": "centres undefined", "Percent Effect": -13.51}
{"structure": "Cc1[nH]/c(=N\\C(=O)c2csc(NCC(C)C)n2)sc1C", "Percent Effect": 99.84}
{"structure": "COC(=O)CCNC(=O)c1cccc(C(=O)N(C)c2ccccc2)c1", "Percent Effect": -49}
{"structure": "Cc1oc(C)c(C(=O)Nc2ccccn2)c1C", "Percent Effect": -113.1}
{"structure": "Cc1cc(C(N)=O)ccc1NC(=O)c1nc(N2CCCCC2)ncc1Cl", "Percent Effect": -36.28}
{"structure": "O=C(CSC1CCCC1)N1CCN(c2ccc(-n3cncn3)nn2)CC1", "Percent Effect": -0.7714}
{"structure": "COC(=O)CN(C)Cc1cc(Br)cs1", "Percent Effect": -32.31}
{"structure": "Cc1cccc(CN2CCC3(CC2)CC(Oc2cccnc2)C3)n1.O=C(O)C(F)(F)F.O=C(O)C(F)(F)F", "Percent Effect": -51.2}
{"structure": "CN(CCc1ccccc1)C(=O)c1cc(CN2CCC(O)CC2)on1", "Percent Effect": 10.76}
{"structure": "O=C1N(c2cccc(F)c2)Cc2nc(=O)n(Cc3ccccc3Cl)n21", "Percent Effect": -3.818}
{"structure": "CNC(=O)CCC(=O)N1CCOC(c2ccc3cc(OC)ccc3c2)C1", "stereo": "centres undefined", "Percent Effect": -11.7}
{"structure": "O=C(O)C(F)(F)F.[H][C@@]12CN(Cc3ccc(OC)cc3)C[C@]1([H])C(=O)N(c1cncnc1)C2", "Percent Effect": -26.14}
{"structure": "O=C(O)C(F)(F)F.O=C(O)C(F)(F)F.c1ccc(CN2CCC3(CC2)CN(c2ccccn2)CCO3)nc1", "Percent Effect": -53.64}
{"structure": "O=C(CN1CCNCC1)N1CC[C@@H](c2ccc3ccccc3c2)[C@H](O)C1", "Percent Effect": 11.1}
{"structure": "[H][C@]12CCC[C@@]1(COCC1CCOCC1)CN(C(=O)c1cccs1)C2", "Percent Effect": 13.05}
{"structure": "CC(NCc1c(C(C)C)nn(C)c1N1CCOCC1)C(=O)N(C)C", "stereo": "centres undefined", "Percent Effect": -45.77}
{"structure": "Cn1nc(C2CCCN(C(=O)CO)C2)cc1O", "stereo": "centres undefined", "Percent Effect": -24.28}
{"structure": "OC(CN1CCC(c2ccn[nH]2)CC1)c1cccc(C(F)(F)F)c1", "stereo": "centres undefined", "Percent Effect": 49.12}
{"structure": "NC1C=C(C(F)(F)F)NC=C1c1ccc(Cl)cc1", "stereo": "centres undefined", "Percent Effect": -11.05}
{"structure": "CC(CCN1CCn2nc(CNC(=O)N(C)C)cc2C1)c1ccccc1", "stereo": "centres undefined", "Percent Effect": 9.81}
{"structure": "CC(C)n1cc(S(=O)(=O)N2CCCC(N3CCCCC3)C2)cn1", "stereo": "centres undefined", "Percent Effect": -2.804}
{"structure": "CN1CCCC(c2cccc(-c3cccc(C(F)(F)F)c3)n2)C1", "stereo": "centres undefined", "Percent Effect": 71.49}
{"structure": "CC(=O)N1CCOC2(CCN(C(=O)c3cnoc3C)CC2)C1", "Percent Effect": 13.17}
{"structure": "CC(C)NC(=O)CC1COC2(CCN(Cc3ccccc3)CC2)C1.O=C(O)C(F)(F)F", "stereo": "centres undefined", "Percent Effect": -14.34}
{"structure": "CN1CC(=O)N(c2ccsc2)CC12CCN(C(=O)CC1CCCC1)C2.O=C(O)C(F)(F)F", "stereo": "centres undefined", "Percent Effect": 8.203}
{"structure": "Cn1nnn(-c2ccc(NS(=O)(=O)c3ccc(F)c(Cl)c3)cc2)c1=O", "Percent Effect": 7.995}
{"structure": "Cc1cc(C)n(CC(C)Nc2nc(C)nc3c2CCNC3)n1", "stereo": "centres undefined", "Percent Effect": -53.71}
{"structure": "CC(=O)N1CCC2(CC1)CN(C(=O)C1CC1)c1ccc(F)cc12", "Percent Effect": -15.36}
{"structure": "COCc1ccccc1C(=O)NCC(c1c(F)cccc1F)N(C)C", "stereo": "centres undefined", "Percent Effect": -19.58}
{"structure": "O=C1NC2(CCCCC2)c2nnnn2-c2ccc(Br)cc21", "Percent Effect": -2.325}
{"structure": "Cc1ccc(F)c(NC(=O)CCC(=O)N(C)Cc2cc(C3CC3)[nH]n2)c1", "Percent Effect": -62.06}
{"structure": "O=C(Nc1ccc(Br)cc1F)c1cc(CN2CCOCC2)on1", "Percent Effect": -12.72}
{"structure": "COc1ccc(NC(=O)C(C)(C)C)cc1OCc1cccnc1", "Percent Effect": -39.04}
{"structure": "Cn1cc(CN2CCCC(Cn3cc(CCCO)nn3)C2)cn1", "stereo": "centres undefined", "Percent Effect": -26.03}
{"structure": "Cn1ccc(C(=O)NC2CCC23CCN(C(=O)c2ccncc2)CC3)c1.O=C(O)C(F)(F)F", "stereo": "centres undefined", "Percent Effect": -11.65}
{"structure": "[H][C@@]12CCN(S(=O)(=O)C3CC3)[C@]1([H])CC[C@@H](c1nnc(C)o1)O2", "Percent Effect": -18.86}
{"structure": "Cc1cnn(CC2CCCN2C(=O)Cc2cn3ccsc3n2)c1", "stereo": "centres undefined", "Percent Effect": 1.141}
{"structure": "COc1cc(C)ccc1OCC(=O)NS(=O)(=O)c1cc(F)ccc1F", "Percent Effect": -18.85}
{"structure": "COc1ccc(F)cc1C(=O)N(C)Cc1cc(C)on1", "Percent Effect": -16.59}
{"structure": "O=C(Cn1c(=O)n(Cc2ccco2)c2ncccc21)NC1CCCCC1", "Percent Effect": -15.9}
{"structure": "CC(C)N(CC(N)=O)CC(=O)NCCc1c(F)cccc1F", "Percent Effect": 8.077}
{"structure": "CN1CCc2nc(C3CCCN(C(=O)CC(C)(C)C)C3)ncc2C1", "stereo": "centres undefined", "Percent Effect": -13.33}
{"structure": "Cc1nn(C)cc1C1SCC(=O)Nc2c1c(O)nn2C(C)C", "stereo": "centres undefined", "Percent Effect": 0.07301}

Repeated from the top, 7 entries:

| structure | Percent Effect |
|---|---|
| `Cc1cc(C)n(C2CCCN(C(=O)c3cccc4c3OCO4)C2)n1` (centres undefined) | 17.87% |
| `O=C(O)C(F)(F)F.[H][C@@]12CCCO[C@]1([H])[C@H](OCC1CCCC1)CN2c1nnc(C)s1` | 15.42% |
| `Cc1cc(C(=O)N2CC[C@H](N3CCN(C)CC3)[C@H](CCCO)C2)n(C)n1` | -37.75% |
| `Cc1ccc(-c2nc(CN3CCN(C(=O)C4CC4)CC3)cs2)o1` | 2.251% |
| `CCc1cc(N(C)CCc2noc(C)n2)nc(N2CCOCC2)n1` | -102.3% |
| `Cc1nc2c(c(=O)n1C)CN(C(=O)C1CCCN(C(N)=O)C1)C2` (centres undefined) | -21.76% |
| `COCC1CN(C(=O)COc2ccccc2C)Cc2ncn(C)c21.O=C(O)C(F)(F)F` (centres undefined) | -41.31% |